Data reported in US20130210911A1, “METHOD AND COMPOSITION FOR TREATING A DISEASE OR CONDITION RELATED TO OREXIN RECEPTOR 1, OREXIN RECEPTOR 2, SOMATOSTATIN RECEPTOR 2 OR DOPAMINE D2L RECEPTOR” (CENTER LABORATORIES, INC., priority 2009, published 2013).

System: Sodium Channel, Site 2
Assay: Sodium channel, site 2 binding assay
Settings: rat sodium channel site 2 binding

Compound | nH (Hill coefficient)
COc1ccc(CCN(C)CCC[C@](C#N)(c2ccc(OC)c(OC)c2)C(C)C)cc1OC [(R)-(+)-verapamil hydrochloride] | 0.938
COc1ccc(CCN(C)CCC[C@@](C#N)(c2ccc(OC)c(OC)c2)C(C)C)cc1OC [(S)-(−)-verapamil hydrochloride] | 1.1

Counter-ions that a name gives are not always drawn.
